The entries are a selection whose mix differs from that of the whole data set. The calls were merged from several studies; some rest on single wells. Some of the results follow.
Columns and labels:
Conditions in all cases: stereoisomer not certain
OR5M11 (Homo sapiens) = target: T1, OR5M11 (Homo sapiens) (UniProt Q96RB7)
T1 sequence (whole entry): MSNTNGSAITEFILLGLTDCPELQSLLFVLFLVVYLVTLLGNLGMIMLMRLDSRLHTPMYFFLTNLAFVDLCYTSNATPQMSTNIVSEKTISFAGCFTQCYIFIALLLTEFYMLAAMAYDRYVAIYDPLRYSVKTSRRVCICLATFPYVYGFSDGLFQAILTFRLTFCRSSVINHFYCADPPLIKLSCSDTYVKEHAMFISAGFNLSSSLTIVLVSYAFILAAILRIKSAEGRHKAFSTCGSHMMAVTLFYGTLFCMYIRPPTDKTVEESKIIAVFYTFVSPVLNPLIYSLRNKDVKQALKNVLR
Outline: (§1)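 Values were gathered from published papers (main text and supplementary material), with extra details requested from the original authors when needed, and checked for typos and inconsistencies. Each receptor–molecule pair is called responsive (active) if the original authors judged the measured signal statistically different from baseline, and non-responsive (inactive) otherwise. Assay methods varied by source, often transient mammalian cell-line luciferase assays. Recorded details include cell line, G-protein, co-transfected protein and tags.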

OR5M1 = system: T2, OR5M1
T2 sequence (whole entry): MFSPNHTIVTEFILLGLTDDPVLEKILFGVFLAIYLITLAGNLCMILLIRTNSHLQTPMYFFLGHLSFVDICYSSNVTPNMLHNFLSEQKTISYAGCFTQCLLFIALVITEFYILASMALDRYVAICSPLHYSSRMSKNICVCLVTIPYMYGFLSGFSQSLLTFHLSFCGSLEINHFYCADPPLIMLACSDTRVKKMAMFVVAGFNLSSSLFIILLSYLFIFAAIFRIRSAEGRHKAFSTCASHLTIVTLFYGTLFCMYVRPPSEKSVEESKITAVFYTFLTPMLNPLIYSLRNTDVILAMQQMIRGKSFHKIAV
Outline: as §1

OR5M3 (Homo sapiens) = target: T3, OR5M3 (Homo sapiens) (UniProt Q8NGP4)
T3 sequence (whole entry): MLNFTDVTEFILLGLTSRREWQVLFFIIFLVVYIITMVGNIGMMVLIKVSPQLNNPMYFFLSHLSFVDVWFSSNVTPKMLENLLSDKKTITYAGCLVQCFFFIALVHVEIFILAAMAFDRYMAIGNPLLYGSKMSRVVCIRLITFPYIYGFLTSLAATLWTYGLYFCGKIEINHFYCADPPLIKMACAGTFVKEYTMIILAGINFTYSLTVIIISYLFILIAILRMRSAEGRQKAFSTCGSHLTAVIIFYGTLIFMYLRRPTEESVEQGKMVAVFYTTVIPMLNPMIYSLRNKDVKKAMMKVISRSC
Outline: as §1

OR5M8 (Homo sapiens) = target: T4, OR5M8 (Homo sapiens) (UniProt Q8NGP6)
T4 sequence (whole entry): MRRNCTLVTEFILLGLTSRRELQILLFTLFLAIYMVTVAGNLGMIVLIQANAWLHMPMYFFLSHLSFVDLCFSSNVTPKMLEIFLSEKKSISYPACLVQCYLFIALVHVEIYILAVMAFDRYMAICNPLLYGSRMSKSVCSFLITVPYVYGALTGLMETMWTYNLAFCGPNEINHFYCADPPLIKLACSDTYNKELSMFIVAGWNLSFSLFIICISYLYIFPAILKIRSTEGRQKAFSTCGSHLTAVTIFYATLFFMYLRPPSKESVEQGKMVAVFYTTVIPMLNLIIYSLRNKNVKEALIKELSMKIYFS
Outline: as §1

OR5M9 (Homo sapiens) = target: T5, OR5M9 (Homo sapiens) (UniProt Q8NGP3)
T5 sequence (whole entry): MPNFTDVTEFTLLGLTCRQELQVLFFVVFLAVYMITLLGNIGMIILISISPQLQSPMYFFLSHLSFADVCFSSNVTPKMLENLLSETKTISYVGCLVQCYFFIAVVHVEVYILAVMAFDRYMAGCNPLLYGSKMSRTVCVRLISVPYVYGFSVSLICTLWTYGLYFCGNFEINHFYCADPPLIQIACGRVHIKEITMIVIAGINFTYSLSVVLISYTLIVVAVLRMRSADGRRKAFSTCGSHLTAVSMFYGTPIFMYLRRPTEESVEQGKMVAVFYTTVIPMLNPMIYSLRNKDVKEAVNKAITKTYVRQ
Outline: as §1

OR5MA = system: T6, OR5MA
T6 sequence (whole entry): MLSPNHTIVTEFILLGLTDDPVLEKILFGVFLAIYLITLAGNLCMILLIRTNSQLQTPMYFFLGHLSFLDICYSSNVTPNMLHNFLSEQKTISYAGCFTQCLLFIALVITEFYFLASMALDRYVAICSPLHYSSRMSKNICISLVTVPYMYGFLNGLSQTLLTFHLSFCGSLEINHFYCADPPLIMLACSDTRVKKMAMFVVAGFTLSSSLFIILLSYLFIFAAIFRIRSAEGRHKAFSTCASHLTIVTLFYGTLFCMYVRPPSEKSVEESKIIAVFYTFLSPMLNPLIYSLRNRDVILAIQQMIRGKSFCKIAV
Outline: as §1

OR5P2 (Homo sapiens) = target: T7, OR5P2 (Homo sapiens) (UniProt Q8WZ92)
T7 sequence (whole entry): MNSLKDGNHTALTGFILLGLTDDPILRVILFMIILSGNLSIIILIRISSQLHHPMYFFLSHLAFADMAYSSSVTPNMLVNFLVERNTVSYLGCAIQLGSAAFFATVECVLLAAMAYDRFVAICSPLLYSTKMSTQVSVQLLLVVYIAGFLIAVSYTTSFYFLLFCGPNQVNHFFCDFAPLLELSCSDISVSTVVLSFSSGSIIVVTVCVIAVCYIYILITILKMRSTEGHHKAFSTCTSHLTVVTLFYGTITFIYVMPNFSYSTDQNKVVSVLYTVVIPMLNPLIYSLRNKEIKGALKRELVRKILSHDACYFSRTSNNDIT
Outline: as §1

OR5P3 (Homo sapiens) = target: T8, OR5P3 (Homo sapiens) (UniProt Q8WZ94)
T8 sequence (whole entry): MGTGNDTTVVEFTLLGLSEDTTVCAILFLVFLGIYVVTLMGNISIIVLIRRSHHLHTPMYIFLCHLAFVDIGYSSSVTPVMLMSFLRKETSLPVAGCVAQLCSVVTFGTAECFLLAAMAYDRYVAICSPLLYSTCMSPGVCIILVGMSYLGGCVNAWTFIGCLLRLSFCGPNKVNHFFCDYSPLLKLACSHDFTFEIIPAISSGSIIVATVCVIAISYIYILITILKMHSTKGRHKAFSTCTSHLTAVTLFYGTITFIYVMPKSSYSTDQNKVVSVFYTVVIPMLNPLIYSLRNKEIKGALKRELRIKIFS
Outline: as §1

OR5R1 = system: T9, OR5R1
T9 sequence (whole entry): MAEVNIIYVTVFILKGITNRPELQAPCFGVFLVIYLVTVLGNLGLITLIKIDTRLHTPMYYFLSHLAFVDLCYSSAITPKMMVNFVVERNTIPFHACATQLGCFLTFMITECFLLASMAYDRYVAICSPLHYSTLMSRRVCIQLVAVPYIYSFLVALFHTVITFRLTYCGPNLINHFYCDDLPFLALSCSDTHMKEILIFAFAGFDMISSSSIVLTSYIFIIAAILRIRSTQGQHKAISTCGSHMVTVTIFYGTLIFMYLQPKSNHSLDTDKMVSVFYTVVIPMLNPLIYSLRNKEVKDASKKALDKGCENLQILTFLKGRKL
Outline: as §1

OR5T1 (Homo sapiens) = target: T10, OR5T1 (Homo sapiens) (UniProt Q8NG75)
T10 sequence (whole entry): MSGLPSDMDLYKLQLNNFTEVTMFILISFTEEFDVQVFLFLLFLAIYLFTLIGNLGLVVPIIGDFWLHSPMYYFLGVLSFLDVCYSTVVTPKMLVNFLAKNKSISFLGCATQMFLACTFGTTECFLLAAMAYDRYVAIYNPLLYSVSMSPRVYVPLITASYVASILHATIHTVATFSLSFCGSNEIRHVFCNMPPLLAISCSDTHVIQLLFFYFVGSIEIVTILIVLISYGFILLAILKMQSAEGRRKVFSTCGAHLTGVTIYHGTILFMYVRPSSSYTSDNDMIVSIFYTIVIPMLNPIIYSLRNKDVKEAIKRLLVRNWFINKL
Outline: as §1

OR5T1 = system: T11, OR5T1
T11 sequence (whole entry): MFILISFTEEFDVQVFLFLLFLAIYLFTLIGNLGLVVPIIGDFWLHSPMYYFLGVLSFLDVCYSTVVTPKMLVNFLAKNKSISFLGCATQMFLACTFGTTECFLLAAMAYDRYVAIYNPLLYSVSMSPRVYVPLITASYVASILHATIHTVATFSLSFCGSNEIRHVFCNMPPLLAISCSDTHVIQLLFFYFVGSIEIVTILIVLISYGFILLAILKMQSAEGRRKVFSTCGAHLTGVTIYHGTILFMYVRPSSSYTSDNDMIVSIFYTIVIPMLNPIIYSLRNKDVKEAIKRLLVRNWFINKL
Outline: as §1

OR5T2 [1] = system: T12, OR5T2
T12 sequence (whole entry): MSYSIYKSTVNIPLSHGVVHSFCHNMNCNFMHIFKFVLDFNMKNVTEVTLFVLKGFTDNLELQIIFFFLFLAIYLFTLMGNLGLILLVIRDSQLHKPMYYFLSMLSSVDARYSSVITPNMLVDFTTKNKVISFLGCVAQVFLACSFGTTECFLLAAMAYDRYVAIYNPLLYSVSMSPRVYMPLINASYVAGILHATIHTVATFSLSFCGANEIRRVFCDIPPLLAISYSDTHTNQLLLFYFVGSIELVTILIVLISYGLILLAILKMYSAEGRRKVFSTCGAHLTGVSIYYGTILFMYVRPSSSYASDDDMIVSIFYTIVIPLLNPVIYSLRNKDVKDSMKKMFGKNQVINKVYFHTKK
Outline: as §1

OR5T2 [2] = system: T13, OR5T2; remark: listed apart in the source
T13 sequence (whole entry): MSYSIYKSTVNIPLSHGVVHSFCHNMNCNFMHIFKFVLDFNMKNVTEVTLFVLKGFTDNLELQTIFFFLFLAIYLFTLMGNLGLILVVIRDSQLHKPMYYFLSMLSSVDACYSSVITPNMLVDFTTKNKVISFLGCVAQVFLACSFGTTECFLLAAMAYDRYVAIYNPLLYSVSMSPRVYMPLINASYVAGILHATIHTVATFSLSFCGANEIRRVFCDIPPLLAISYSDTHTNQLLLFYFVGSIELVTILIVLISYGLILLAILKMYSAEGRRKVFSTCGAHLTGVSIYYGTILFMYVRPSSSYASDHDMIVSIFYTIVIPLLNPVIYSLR
Outline: as §1

OR5T3 = system: T14, OR5T3
T14 sequence (whole entry): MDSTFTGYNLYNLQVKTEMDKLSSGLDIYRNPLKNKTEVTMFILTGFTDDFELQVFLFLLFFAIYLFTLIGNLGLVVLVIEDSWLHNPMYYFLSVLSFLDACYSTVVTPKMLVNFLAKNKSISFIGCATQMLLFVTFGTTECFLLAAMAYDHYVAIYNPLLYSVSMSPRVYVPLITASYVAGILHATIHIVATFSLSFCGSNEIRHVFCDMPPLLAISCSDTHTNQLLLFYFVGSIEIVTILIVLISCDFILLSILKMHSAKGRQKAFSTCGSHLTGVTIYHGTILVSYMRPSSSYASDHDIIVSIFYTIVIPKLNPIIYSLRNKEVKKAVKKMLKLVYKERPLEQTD
Outline: as §1

OR5V1 (Homo sapiens) = target: T15, OR5V1 (Homo sapiens) (UniProt Q9UGF6)
T15 sequence (whole entry): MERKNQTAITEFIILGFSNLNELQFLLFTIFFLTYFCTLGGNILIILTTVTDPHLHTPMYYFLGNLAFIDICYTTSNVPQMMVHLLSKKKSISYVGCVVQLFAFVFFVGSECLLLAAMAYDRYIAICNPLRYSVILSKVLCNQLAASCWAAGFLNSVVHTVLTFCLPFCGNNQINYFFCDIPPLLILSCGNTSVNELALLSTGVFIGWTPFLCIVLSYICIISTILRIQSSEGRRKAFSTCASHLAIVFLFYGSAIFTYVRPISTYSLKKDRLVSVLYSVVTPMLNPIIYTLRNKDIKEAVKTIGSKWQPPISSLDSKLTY
Outline: as §1

OR5W2 = system: T16, OR5W2
T16 sequence (whole entry): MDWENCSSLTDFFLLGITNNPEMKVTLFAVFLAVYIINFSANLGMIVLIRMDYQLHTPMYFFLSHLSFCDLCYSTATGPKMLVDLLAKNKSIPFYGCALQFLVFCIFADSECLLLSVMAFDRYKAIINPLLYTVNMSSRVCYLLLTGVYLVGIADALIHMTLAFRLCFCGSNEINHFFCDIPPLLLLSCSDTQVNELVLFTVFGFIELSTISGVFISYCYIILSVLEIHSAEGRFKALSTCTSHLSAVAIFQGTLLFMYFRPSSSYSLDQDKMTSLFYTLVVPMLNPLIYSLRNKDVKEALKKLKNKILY
Outline: as §1

OR6A2 (Homo sapiens) = target: T17, OR6A2 (Homo sapiens) (UniProt O95222)
T17 sequence (whole entry): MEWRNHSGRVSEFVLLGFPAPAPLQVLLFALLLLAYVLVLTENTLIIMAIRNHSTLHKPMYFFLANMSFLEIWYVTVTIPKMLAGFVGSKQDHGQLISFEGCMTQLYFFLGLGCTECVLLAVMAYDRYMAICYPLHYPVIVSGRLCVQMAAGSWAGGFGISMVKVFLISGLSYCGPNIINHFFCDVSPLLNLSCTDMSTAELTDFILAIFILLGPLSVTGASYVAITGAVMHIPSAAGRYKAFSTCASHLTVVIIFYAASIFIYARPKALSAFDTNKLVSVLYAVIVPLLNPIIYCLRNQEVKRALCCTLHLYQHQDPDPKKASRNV
Outline: as §1

Measured: odorant receptor agonist call

CCCCCC(=O)O
inactive: OR5M11 (Homo sapiens) | OR5M1 | OR5M3 (Homo sapiens) | OR5M8 (Homo sapiens) | OR5M9 (Homo sapiens) | OR5MA | OR5P2 (Homo sapiens) | OR5P3 (Homo sapiens) | OR5R1 | OR5T1 (Homo sapiens) | OR5T1 | OR5T2 [1] | OR5T2 [2] | OR5T3 | OR5V1 (Homo sapiens) | OR5W2 | OR6A2 (Homo sapiens)

CC(=O)OC1CC2CCC1(C)C2(C)C (stereo not drawn)
inactive: OR5M11 (Homo sapiens) | OR5M1 | OR5M8 (Homo sapiens) | OR5M9 (Homo sapiens) | OR5MA | OR5P2 (Homo sapiens) | OR5P3 (Homo sapiens) | OR5R1 | OR5T1 (Homo sapiens) | OR5T1 | OR5T2 [1] | OR5T2 [2] | OR5T3 | OR5V1 (Homo sapiens) | OR5W2 | OR6A2 (Homo sapiens)
